The text below walks through data of paper PMC11304230.

Protein sequences, listed by entry. Tags and fused reporters are not part of them. Residues count along the entry.
UniProt Q6X4U4, residues 24-206: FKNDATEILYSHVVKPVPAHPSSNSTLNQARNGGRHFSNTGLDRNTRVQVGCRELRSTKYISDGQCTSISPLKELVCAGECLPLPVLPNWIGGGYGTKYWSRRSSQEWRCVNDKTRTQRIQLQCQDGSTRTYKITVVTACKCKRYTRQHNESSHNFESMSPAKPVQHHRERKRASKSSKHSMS
UniProt O14646: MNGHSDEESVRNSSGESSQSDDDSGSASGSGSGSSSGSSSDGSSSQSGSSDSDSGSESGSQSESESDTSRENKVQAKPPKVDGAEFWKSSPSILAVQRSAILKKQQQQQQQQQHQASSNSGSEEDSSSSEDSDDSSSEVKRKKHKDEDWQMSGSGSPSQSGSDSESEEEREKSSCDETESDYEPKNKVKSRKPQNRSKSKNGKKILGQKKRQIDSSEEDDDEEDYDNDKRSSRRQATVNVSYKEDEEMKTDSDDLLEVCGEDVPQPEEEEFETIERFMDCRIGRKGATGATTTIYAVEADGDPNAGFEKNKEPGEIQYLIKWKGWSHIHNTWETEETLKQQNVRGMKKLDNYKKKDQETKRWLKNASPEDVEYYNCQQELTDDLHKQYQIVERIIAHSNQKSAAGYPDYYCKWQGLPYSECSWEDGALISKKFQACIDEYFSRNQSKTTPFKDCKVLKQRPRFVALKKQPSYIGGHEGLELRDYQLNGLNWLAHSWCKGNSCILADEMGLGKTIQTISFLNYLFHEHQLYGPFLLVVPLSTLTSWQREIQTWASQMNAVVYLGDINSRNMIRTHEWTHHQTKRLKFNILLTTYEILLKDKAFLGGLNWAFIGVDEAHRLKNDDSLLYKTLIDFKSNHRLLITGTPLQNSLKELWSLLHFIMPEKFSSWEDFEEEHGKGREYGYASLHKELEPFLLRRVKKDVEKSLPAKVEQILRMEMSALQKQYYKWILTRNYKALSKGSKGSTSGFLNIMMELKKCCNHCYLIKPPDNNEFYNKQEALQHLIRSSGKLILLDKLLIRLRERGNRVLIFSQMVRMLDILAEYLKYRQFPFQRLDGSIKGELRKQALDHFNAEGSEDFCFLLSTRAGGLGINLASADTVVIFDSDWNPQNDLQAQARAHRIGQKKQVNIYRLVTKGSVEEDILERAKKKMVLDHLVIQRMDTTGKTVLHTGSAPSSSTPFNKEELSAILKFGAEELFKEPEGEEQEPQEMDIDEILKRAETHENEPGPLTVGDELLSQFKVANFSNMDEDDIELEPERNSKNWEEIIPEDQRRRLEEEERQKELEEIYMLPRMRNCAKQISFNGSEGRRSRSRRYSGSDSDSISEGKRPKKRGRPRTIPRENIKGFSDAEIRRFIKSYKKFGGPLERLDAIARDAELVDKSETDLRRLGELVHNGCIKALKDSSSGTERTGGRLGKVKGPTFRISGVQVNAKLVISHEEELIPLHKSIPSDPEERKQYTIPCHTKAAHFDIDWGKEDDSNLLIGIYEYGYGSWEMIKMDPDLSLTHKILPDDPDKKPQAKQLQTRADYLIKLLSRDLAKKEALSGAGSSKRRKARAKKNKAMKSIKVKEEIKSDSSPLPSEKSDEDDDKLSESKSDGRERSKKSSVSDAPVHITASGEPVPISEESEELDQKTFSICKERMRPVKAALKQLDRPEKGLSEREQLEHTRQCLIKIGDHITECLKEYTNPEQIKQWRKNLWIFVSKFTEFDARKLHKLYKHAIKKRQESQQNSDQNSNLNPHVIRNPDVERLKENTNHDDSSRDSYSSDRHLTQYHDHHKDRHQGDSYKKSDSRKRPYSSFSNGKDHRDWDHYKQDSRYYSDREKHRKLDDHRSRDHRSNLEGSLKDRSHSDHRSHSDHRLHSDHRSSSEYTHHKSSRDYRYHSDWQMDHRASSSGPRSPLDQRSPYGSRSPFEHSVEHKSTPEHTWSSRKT
UniProt P52294: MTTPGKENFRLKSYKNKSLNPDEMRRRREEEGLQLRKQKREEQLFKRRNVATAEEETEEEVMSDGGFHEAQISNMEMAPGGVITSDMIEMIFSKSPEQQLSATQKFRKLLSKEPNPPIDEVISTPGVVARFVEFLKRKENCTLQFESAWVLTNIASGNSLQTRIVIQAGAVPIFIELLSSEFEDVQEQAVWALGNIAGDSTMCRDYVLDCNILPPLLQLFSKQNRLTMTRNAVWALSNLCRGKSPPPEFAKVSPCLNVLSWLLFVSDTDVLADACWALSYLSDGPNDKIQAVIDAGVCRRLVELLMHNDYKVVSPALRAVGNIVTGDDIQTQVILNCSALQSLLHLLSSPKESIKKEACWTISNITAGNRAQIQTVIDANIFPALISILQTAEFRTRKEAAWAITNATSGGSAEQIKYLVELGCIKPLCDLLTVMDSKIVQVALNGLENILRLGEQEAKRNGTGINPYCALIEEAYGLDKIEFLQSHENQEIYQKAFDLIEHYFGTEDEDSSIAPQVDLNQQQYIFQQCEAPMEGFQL
UniProt O00505: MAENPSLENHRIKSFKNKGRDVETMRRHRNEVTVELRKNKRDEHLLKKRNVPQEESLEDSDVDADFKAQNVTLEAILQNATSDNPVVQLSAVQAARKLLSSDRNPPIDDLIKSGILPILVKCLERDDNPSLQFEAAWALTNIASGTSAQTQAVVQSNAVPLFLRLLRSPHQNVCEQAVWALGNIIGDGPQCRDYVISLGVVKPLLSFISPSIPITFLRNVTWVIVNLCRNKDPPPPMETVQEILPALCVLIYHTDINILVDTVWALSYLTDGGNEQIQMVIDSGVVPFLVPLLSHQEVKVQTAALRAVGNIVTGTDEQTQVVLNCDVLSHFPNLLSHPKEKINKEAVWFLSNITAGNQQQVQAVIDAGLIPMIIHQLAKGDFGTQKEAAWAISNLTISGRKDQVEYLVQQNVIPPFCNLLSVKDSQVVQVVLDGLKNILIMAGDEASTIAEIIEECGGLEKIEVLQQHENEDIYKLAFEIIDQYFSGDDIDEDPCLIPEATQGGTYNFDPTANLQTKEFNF
UniProt Q9Y297: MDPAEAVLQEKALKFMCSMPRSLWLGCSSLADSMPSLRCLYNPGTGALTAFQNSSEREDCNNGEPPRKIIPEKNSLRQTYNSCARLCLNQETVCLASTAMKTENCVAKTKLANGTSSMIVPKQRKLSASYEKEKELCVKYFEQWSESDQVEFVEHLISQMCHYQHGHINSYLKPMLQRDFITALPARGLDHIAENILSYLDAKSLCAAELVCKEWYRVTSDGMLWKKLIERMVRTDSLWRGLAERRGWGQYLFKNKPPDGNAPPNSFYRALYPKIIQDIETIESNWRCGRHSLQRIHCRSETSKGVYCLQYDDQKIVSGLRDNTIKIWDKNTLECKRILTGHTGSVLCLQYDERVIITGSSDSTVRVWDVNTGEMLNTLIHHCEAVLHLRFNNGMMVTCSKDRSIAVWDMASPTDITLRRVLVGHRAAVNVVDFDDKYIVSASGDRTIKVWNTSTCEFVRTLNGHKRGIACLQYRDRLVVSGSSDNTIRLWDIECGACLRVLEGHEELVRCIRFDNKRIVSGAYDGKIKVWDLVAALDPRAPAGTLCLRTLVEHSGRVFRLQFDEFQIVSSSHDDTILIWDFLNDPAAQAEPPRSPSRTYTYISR

These are yes or no findings as the source states them, for the method shown. For some assays here: Binding seen in cells or lysates may run through a third protein. Some results given as binding are weak or reduced against the parent protein; the word gives no strength.

Assay [1] deals with FLAG-tagged SOSTDC1 stably overexpressed in SUM159 cells (UniProt Q6X4U4). The assay can be described thus: co-IP; cytoplasmic lysate of FLAG-tagged SOSTDC1-overexpressing SUM159 cells, anti-FLAG magnetic beads, western blot. For orientation: Immunoblotting shows a protein as a band on a membrane.
For assay [2] the target is unchanged. Put plainly: co-IP; nuclear lysate of FLAG-tagged SOSTDC1-overexpressing SUM159 cells, anti-FLAG magnetic beads, western blot.
The target is the same in assay [3]. Put plainly: co-IP; co-IP of SOSTDC1 and CHD1 with or without 1 µmol/L Olaparib for 12 h; cells and constructs not named in the legend.
The target of assay [4] is Purified FLAG-tagged CHD1 recombinant protein (GST fusion from pGEX-6p-1) (UniProt O14646). The assay can be described thus: co-IP; in vitro co-IP: purified HA-tagged SOSTDC1 and FLAG-tagged CHD1 recombinant proteins, anti-FLAG magnetic beads, western blot; both purified.
Assay [5] deals with HA-tagged full-length CHD1 (chromatin helicase DNA-binding factor), transfected (UniProt O14646). Put plainly: co-IP; co-IP of β-TrCP and CHD1 from cells in the presence or absence of SOSTDC1 (Figure 5M); co-IP of β-TrCP with CHD1 (Figure S10A).
Assay [6] has as its target FLAG-KPNA1 (importin-α family karyopherin) (UniProt P52294). Put plainly: co-IP; 293T cells co-transfected with SOSTDC1 and FLAG-tagged KPNA vectors for 36 h, then Olaparib for 4 h; lysates on anti-FLAG magnetic beads; immunoblot.
Assay [7] deals with FLAG-KPNA3 (importin-α family karyopherin) (UniProt O00505). Described as above.
Assay [8] addresses Purified FLAG-tagged CHD1 recombinant protein (GST fusion from pGEX-6p-1) (UniProt O14646). The assay can be described thus: co-IP; in vitro co-IP of CHD1 and β-TrCP in the presence or absence of SOSTDC1; GST-fusion proteins purified from E. coli BL21; both purified.
The target of assay [9] is HA-tagged full-length CHD1 (chromatin helicase DNA-binding factor), transfected (UniProt O14646). Put plainly: co-IP; 293T cells transfected with HA-tagged CHD1 (full length or truncated mutants a, b, c) and FLAG-tagged SOSTDC1; magnetic beads with antibodies to FLAG or HA; western blot (cells of Figure 4C not named).
Assay [10] concerns the target HA-tagged SOSTDC1, transfected into 293T cells (UniProt Q6X4U4). The assay can be described thus: co-IP; 293T cells transfected with HA-tagged SOSTDC1 and FLAG-tagged wild type or β-TrCP-binding-motif mutants of CHD1; anti-HA magnetic beads; western blot.

With “Endogenous CHD1 of SUM159 cells (from UniProt O14646 1-1710)”, the binding entry in assay [1] is reported as “no binding (condition: in the cytoplasmic lysate)”; in [2] it was “binds”; in assay [3] it was “binds”.

On to “Purified HA-tagged SOSTDC1 recombinant protein (GST fusion from pGEX-6p-1) (from UniProt Q6X4U4 24-206)”, for which the binding result in assay [4] is reported as “binds”.

On to “SOSTDC1 (tag not stated), co-transfected into 293T cells (from UniProt Q6X4U4 24-206)”, for which the binding result in assay [5], in assay [6] and in [7] was “binds” each time.

In the case of “Purified β-TrCP recombinant protein (GST fusion from pGEX-6p-1) (from UniProt Q9Y297 1-605)”, the binding result in [8] is recorded as “binds”.

On to “FLAG-tagged SOSTDC1 (sclerostin domain containing protein 1), transfected into 293T cells (from UniProt Q6X4U4 24-206)”, for which, in assay [9], the binding result is “binds”.

Regarding “FLAG-tagged wild type CHD1, transfected into 293T cells (from UniProt O14646 1-1710)”, the binding entry in assay [10] was “binds”.

For the substance “FLAG-tagged β-TrCP (β-transducin repeat-containing protein), overexpressed in cells (from UniProt Q9Y297 1-605)”, in assay [5], the binding entry was “binds”.
